Results on four molecules are retold here after article PMC8758774.

By UniProt entry, the sequences of proteins in these tests, tags left out.
UniProt P53396: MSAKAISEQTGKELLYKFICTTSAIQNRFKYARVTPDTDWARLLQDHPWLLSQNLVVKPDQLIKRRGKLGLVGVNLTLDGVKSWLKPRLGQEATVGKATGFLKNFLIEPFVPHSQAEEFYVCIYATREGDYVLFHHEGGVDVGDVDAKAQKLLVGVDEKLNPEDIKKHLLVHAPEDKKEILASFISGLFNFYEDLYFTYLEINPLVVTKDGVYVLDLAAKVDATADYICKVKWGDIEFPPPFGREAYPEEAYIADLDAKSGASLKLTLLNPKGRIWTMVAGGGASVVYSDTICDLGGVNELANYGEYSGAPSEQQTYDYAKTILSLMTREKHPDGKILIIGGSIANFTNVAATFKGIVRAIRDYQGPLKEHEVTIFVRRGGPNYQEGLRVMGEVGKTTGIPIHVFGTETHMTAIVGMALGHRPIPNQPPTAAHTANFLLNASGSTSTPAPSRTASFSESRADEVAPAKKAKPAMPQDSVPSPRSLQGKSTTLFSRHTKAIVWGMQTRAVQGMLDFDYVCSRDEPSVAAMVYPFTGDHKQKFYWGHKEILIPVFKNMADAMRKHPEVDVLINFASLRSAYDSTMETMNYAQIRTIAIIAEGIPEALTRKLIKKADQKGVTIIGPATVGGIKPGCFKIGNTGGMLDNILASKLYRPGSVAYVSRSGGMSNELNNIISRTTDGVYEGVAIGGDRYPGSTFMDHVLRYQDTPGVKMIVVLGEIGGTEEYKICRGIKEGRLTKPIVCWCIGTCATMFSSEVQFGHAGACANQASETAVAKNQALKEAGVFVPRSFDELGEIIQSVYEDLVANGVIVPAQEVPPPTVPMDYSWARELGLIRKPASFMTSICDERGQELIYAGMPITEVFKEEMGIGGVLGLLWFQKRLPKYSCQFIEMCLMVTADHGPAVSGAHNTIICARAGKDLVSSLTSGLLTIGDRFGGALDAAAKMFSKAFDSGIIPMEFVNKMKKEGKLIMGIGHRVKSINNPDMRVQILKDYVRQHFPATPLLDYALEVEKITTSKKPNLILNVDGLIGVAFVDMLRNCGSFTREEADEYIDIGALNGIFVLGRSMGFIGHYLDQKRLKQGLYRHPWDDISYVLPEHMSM

No constants are given. Whether binding was seen depends on the method and setting. Binding seen in cells or lysates may run through a third protein. Some entries that bind do so weakly or less than the wild type. For some of these results: Where a sequence is shown, tags or fusion partners need not be part of it.

The target of test [1] is T1, HSPC111 (human (endogenous in LX-2)) (UniProt Q9Y3C1).
T1 sequence: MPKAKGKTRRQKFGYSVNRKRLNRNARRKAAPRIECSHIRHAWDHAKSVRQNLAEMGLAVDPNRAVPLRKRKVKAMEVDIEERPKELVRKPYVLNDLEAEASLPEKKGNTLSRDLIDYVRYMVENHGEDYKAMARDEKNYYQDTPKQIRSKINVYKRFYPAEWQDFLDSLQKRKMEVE
As to the kind of experiment: co-IP; endogenous proteins in LX-2 cells, NP-40 lysis buffer, antibodies overnight at 4 °C, protein A/G magnetic beads, western blot; both directions. For orientation: In western blotting, separated proteins are transferred to a membrane and probed.

Test [2] has as its target T2, GST-HSPC111 fusion protein (human) (UniProt Q9Y3C1).
T2 sequence: T1 sequence
As to the kind of experiment: pull-down; GST or GST-HSPC111 from BL21 immobilised on glutathione agarose resin (4 °C, 2 h), incubated with 293T lysate containing Flag-ACLY at 4 °C for 12 h, eluted with glutathione, western blot; only the target purified.

Test [3] deals with T3, His-tagged HSPC111 (human) (UniProt Q9Y3C1).
T3 sequence: T1 sequence
As to the kind of experiment: co-IP; HEK293T cells co-transfected with His-HSPC111 and Flag-ACLY lentivirus, NP-40 lysis buffer, His antibody or Flag antibody overnight at 4 °C, Anti-His or Anti-Flag magnetic beads, western blot.

The target in test [4] is ATP-citrate lyase (ACLY) (human (endogenous in LX-2)) (UniProt P53396). The test is described as follows: co-IP; endogenous proteins in LX-2 cells, NP-40 lysis buffer, antibodies overnight at 4 °C, protein A/G magnetic beads, western blot; both directions.

Take “ATP-citrate lyase (ACLY) (from UniProt P53396 1-1101) (enzyme)”: the binding result in test [1] is on record as “binds”. On to “Flag-ACLY (pCMV-Flag-ACLY) (from UniProt P53396 1-1101) (enzyme)”, for which, in test [2], the binding entry is recorded as “binds”. Regarding “Flag-tagged ACLY (lentiviral) (from UniProt P53396 1-1101) (enzyme)”, the binding entry in test [3] is reported as “binds”.

B1: HSPC111 (protein, UniProt Q9Y3C1 1-178)
chain: T1 sequence
For the molecule B1, the binding result in test [4] is “binds”.
